# US20110144069A1, “COMPOUNDS FOR TREATING VIRAL INFECTIONS” (priority 2006, published 2011)
# Some of these results come from one statement about several compounds together.
# System: mock-infected MT-4 cells
# Experiment: Compound toxicity in mock-infected cells (WST-1 assay)
# Format: cell-based
# Details: toxicity measure, host cells; read-out: TC50 (concentration of compound that results in death of 50% of the host cells)
# Experimental: The HTLV-1 transformed T cell line, MT-4, is highly susceptible to HIV-1 infection. Anti-HIV-1 agents were evaluated in this target cell line by protection from the HIV-induced cytopathic effect. In this assay, viability of both HIV-1 and mock-infected cells was assessed in a colorimetric assay that monitors the ability of metabolically-active cells to reduce the tetrazolium salt WST-1. Cytoprotection by antiviral compounds is indicated by the positive readout of increased WST-1 cleavage.
# Briefly, exponentially growing MT-4 cells were mock-infected or batch-infected with the HIV-1 laboratory strain, NL4-3, at a multiplicity of infection of 0.0005. Following a two hour infection, the cells were washed to remove unbound virus and plated in the presence of increasing concentrations of compound. After four days incubation, cytoprotection in the infected cells and compound toxicity in mock-infected cells were analyzed using the WST-1 assay.
row,SMILES,CC50
1,C=C(C)[C@@H]1CC[C@]2(C(=O)NCc3ccncc3)CC[C@]3(C)[C@H](CC[C@@H]4[C@@]5(C)CC[C@H](O)C(C)(C)[C@@H]5CC[C@]43C)[C@@H]12 [Compound 46],> 10 µM
2,C=C(C)[C@@H]1CC[C@]2(C(=O)NCCc3ccc(OC)cc3)CC[C@]3(C)[C@H](CC[C@@H]4[C@@]5(C)CC[C@H](OC(=O)CC(C)(C)C(=O)O)C(C)(C)[C@@H]5CC[C@]43C)[C@@H]12 [Compound 70],> 10 µM
3,C=C(C)[C@@H]1CC[C@]2(C(=O)NCc3cccnc3)CC[C@]3(C)[C@H](CC[C@@H]4[C@@]5(C)CC[C@H](OC(=O)CC(C)(C)C(=O)O)C(C)(C)[C@@H]5CC[C@]43C)[C@@H]12 [Compound 76],> 10 µM
